{
  "sequences": {"note": "Amino acid sequences for entries named in this document (tags omitted).", "UniProt Q8C735": "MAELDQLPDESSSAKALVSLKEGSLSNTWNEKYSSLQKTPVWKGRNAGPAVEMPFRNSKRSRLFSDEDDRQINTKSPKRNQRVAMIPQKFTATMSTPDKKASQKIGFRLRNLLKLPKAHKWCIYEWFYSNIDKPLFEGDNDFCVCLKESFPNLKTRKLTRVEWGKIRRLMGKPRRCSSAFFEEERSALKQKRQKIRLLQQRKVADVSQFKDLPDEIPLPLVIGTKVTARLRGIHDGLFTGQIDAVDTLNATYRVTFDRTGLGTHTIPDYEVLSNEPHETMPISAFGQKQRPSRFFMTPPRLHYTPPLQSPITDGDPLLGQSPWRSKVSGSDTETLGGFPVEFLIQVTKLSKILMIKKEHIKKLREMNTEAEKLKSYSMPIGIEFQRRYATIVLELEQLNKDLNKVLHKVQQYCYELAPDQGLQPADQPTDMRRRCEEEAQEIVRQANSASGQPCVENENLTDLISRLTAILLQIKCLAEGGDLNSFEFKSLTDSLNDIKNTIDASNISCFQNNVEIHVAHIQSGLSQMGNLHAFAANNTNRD", "UniProt P48972": "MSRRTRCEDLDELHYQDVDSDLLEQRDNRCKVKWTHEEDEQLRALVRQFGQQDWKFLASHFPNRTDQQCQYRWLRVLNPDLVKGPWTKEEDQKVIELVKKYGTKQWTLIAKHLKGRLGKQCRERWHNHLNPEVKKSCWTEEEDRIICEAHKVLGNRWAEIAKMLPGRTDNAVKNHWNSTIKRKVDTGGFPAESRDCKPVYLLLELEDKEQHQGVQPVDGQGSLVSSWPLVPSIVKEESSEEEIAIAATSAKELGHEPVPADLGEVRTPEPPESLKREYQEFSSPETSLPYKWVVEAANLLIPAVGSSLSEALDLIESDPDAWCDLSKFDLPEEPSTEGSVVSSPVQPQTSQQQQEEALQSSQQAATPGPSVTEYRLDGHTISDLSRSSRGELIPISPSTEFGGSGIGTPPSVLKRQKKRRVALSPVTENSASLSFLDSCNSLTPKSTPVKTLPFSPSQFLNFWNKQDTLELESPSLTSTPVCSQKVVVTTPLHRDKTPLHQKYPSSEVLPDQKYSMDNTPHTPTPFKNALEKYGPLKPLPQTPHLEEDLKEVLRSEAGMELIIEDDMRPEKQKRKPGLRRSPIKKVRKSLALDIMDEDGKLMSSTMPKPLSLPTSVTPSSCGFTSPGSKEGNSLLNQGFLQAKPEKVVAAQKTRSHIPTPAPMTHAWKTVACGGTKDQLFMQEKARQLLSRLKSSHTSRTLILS"},
  "source": "paper PMC3647048",
  "biological_target": "LIN9 (mouse (endogenous in E14 ESCs)) (UniProt Q8C735)",
  "assay": "co-IP; nuclear extracts of mouse ESCs immunoprecipitated with LIN9 antibody (ab62329) overnight at 4°C, Protein-G Dynabeads, washed 5 times with TNN (120 mM NaCl, 0.5% NP40); nonspecific IgG as control; immunoblotting",
  "note": "These are yes or no findings as the source states them, for the method shown. In cells and extracts the contact can be indirect. Some results given as binding are weak or reduced against the parent protein; the word gives no strength.",
  "data": [
    {"substance": "B-MYB (from UniProt P48972 1-704)", "values": [
      {"measurement": "binding", "result": "binds"}
    ]}
  ]
}
